Results are given in words; binding and its absence hold for the method and conditions named. In cells and extracts the contact can be indirect. A result given as binding can be weak or reduced; the word gives no strength.
Target: SPOP-ΔNLS (UniProt O43791)
Assay: co-IP; 293T cells transfected with the indicated plasmids; co-IP with anti-FLAG antibody from whole-cell lysates, Western blot

Amino acid sequences for entries named in this document (tags omitted). A change or cut given only in a name is not applied to a line headed by its entry.
UniProt O43791: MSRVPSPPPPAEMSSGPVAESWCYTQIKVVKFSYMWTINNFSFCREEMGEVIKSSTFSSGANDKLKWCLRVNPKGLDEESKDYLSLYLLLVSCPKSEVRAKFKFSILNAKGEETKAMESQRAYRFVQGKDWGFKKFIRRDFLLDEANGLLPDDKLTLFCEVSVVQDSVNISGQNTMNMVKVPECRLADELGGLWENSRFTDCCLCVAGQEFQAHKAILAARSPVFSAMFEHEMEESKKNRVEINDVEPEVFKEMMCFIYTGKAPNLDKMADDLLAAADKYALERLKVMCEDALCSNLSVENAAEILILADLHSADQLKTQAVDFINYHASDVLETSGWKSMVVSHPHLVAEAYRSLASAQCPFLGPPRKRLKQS
UniProt P15056: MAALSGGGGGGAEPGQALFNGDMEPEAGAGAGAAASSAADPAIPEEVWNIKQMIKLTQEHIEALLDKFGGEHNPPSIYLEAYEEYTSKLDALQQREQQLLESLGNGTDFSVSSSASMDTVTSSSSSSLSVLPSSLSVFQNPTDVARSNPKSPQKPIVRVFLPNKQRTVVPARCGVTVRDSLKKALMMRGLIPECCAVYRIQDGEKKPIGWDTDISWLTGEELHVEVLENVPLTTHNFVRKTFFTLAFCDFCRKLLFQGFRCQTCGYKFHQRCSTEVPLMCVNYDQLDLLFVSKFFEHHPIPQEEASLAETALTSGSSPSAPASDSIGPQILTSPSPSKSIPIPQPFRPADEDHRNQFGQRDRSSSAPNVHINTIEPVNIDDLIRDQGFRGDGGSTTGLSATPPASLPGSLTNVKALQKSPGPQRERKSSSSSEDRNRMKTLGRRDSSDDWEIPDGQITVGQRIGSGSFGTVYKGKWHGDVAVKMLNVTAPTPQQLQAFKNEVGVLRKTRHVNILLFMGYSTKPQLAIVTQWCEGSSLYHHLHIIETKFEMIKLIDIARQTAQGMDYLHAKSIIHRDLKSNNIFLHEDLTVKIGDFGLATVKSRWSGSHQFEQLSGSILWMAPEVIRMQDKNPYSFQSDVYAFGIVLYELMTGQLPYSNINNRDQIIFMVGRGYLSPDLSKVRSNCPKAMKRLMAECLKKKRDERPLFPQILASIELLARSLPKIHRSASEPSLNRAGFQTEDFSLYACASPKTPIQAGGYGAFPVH

For “BRAF, wild type, ectopically expressed (from UniProt P15056 1-766)”, the binding was “binds”.

From PMC9805134
